At least one peptide structure holds a part that was inferred or is arguable (an end, a ring closure or a residue). Peptide text beside a SMILES is read from it.
Test system: IL-3
Experiment: PT-18β proliferation assay (WST-1), IL-3-stimulated (non-γc-cytokine negative control)
Assay type: cell-based
Conditions: PT-18β cells, 1 nM cytokine, 1:20 or 1:50 dilution of HEK293T supernatant, 2 days

CC[C@H](C)[C@H](N)C(=O)N[C@@H](CCCCN)C(=O)N[C@@H](CCC(=O)O)C(=O)N[C@@H](Cc1ccccc1)C(=O)N[C@@H](CC(C)C)C(=O)N[C@@H](CCC(N)=O)C(=O)N[C@@H](CCCNC(=N)N)C(=O)N[C@@H](Cc1ccccc1)C(=O)N[C@H](C(=O)N[C@@H](Cc1c[nH]cn1)C(=O)N[C@H](C(=O)N[C@H](C(=O)N[C@@H](CCC(N)=O)C(=O)N[C@@H](CO)C(=O)N[C@H](C(=O)N[C@H](C(=O)N[C@@H](CC(N)=O)C(=O)N[C@H](C(=O)N[C@@H](CO)C(=O)O)[C@@H](C)O)[C@@H](C)CC)[C@@H](C)CC)C(C)C)[C@@H](C)CC)[C@@H](C)CC [BNZ-γ, I-K-E-F-L-Q-R-F-I-H-I-V-Q-S-I-I-N-T-S] (H-IKEFLQRFIHIVQSIINTS-OH)
growth-promoting activity of IL-3: not inhibited
